Patent US20040110727A1, “Aldehyde-releasing compounds” (priority 2000, published 2004)

System: DNA
Experiment: Stability of [14C]Adriamycin-DNA adducts (temperature lability, dissociation at 37° C.)

Structure (SMILES): COc1cccc2c1C(=O)c1c(O)c3c(c(O)c1C2=O)C[C@@](O)(C(=O)CO)C[C@@H]3O[C@H]1C[C@H](N)[C@H](O)[C@H](C)O1 [Adriamycin]
- melting temperature (Tm) of adducts (AN-9/esterase-mediated adducts in vitro): 74.3±3.5 °C
- melting temperature (Tm) of adducts (adducts formed in IMR-32 cells in the presence of AN-9 (4 μM [14C] Adriamycin 2 hr, then 260 μM AN-9 2 hr)): 75.1±0.4 °C
- melting temperature (Tm) of adducts (formaldehyde-mediated adducts in vitro): 72.2±1.6 °C
